# Screening data, single-dose tests

Amino acid sequences for entries named in this document (tags omitted).
UniProt P9WFT3, whole entry: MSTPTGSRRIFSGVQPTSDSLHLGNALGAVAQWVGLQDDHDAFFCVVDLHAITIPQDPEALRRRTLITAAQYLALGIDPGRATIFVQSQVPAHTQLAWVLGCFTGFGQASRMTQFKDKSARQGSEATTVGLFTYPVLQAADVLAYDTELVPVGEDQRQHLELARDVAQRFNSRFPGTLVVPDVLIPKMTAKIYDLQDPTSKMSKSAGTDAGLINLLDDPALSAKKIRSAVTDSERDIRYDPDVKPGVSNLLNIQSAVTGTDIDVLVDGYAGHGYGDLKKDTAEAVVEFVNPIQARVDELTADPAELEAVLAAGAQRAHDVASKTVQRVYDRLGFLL
UniProt P9WNZ1, whole entry: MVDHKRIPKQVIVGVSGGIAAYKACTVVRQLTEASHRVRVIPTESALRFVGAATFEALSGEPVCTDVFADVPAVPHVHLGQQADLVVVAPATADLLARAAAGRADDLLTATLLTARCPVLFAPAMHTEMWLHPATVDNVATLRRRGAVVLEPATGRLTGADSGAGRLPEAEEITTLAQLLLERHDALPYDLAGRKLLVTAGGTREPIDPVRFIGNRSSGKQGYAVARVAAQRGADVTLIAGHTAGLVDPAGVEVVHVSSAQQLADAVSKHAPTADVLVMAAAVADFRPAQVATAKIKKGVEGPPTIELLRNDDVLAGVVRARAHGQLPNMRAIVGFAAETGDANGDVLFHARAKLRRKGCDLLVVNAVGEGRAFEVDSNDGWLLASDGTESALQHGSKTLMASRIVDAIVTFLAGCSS

From ChEMBL document CHEMBL3988442, “University of Dundee, Small-Polar-MMV Screening Library” (2021).

Values are the deposited “Percent Effect”, in %.
How 0% and 100% were set is not recorded. Most values in the screen are low, and negative values occur.
Compounds were drawn at random from those tested, without regard to their results.
A dash means the value is not listed here; it may have been measured.

MtTrpRS: 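Enzyme assay of tryptophanyl-tRNA synthetase; the read-out is not stated. Target: Tryptophan-tRNA ligase, Mycobacterium tuberculosis (UniProt P9WFT3). Concentration: 10 µM. Higher most likely means stronger inhibition; the record gives no direction and few retests gave an IC50. Of about 65,000 compounds tested this way, about 64 (0.098%) reached 50% or more in at least one test.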
CoaBC: 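Enzyme assay of CoaBC with a phosphate dye (Biomol Green) read at 650 nm. Target: Coenzyme A biosynthesis protein CoaBC, Mycobacterium tuberculosis (UniProt P9WNZ1). Tested at 30 µM. Direction is inferred from only a few compounds that gave an IC50; most scored high, so higher reads as stronger inhibition. Most strong results did not repeat in a second test. Size under these conditions: about 67,000 compounds, about 40 of them at 50% or above in at least one test.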

| SMILES | MtTrpRS | CoaBC |
|---|---|---|
| `CC(CCc1ccc(F)c(F)c1)NS(=O)(=O)Cc1ccon1` (stereo unspecified) | 3.888% | -1.456% |
| `COc1cccc(Nc2nc(C3CCCNC3)c3ccccn23)c1` (stereo unspecified) | -30.99% | 5.263% |
| `O=C(c1ccc(C2CCCO2)s1)N1CCOCC1` (stereo unspecified) | 3.43% | 11.16% |
| `Cc1ccc(Cl)cc1NCc1nc2n(n1)CCCCC2` | 1.492% | 6.203% |
| `CC(=O)c1cccc(OCC(=O)N(CC(C)C)C2CCN(C)CC2)c1` | 11.42% | -8.855% |
| `Cc1cc(NC(=O)C(C)N2CCN(c3ccc(C#N)cc3F)CC2)no1` (stereo unspecified) | -3.267% | 3.69% |
| `Cc1nn(C)c(C)c1C1CCCN1C(=O)c1ccc(N(C)C)nn1` (stereo unspecified) | -4.345% | -0.6361% |
| `Cc1nc(C)n(CC2CN(Cc3ccc4c(c3)OCCO4)CCO2)n1` (stereo unspecified) | -9.016% | 5.085% |
| `O=C1CN(CCCNC(=O)Nc2cccc(Cl)c2F)CCN1` | 4.499% | -47.07% |
| `CCN(CC)C(=O)c1ccn(COc2cccc(Cl)c2Cl)n1` | -0.1971% | -0.7009% |
| `Cc1cc(Cl)ccc1-n1ncc(C(=O)N(C)CCc2ccccn2)c1N` | - | -0.2427% |
| `Cc1cc(C)nc(N2CCC(C(=O)Nc3n[nH]c(CC(C)C)n3)CC2)n1` | 2.67% | 17.97% |
| `Cc1nc(CNC(C)c2ccc(S(=O)(=O)N(C)C)cc2)no1` (stereo unspecified) | -3.193% | -0.6329% |
| `Cc1nc2scc(C)n2c1CNc1ccc(C(=O)O)cc1` | 7.736% | 9.163% |
| `CN(C)CCN1CCOCC2(C1)CN(Cc1ccco1)CCO2` (stereo unspecified) | -0.07582% | 3.09% |
| `C[C@@H]1CN(Cc2nc(Cc3ccccc3F)no2)C[C@H](C)O1` | -1.356% | -1.523% |
| `Cc1ccc(F)c(S(=O)(=O)Nc2cn(C)cc(Br)c2=O)c1` | -1.317% | -6.659% |
| `N[C@@H]1c2ccccc2C2(CCN(c3cnc4ccccc4n3)CC2)[C@H]1O` | 4.487% | 12.28% |
| `COc1ccc(C2CC(=O)Nc3nc(N4CCOCC4)sc32)c(OC)c1` (stereo unspecified) | 5.559% | 6.962% |
| `CC(C)(C(=O)NCCC(=O)O)c1cccc(Br)c1` | -2.726% | 7.595% |
| `CCC(=O)NCC(=O)NCc1cc(Br)ccc1OC(F)F` | 1.599% | 4.911% |
| `Fc1cnc(N2CCn3cc(CNc4ccccn4)nc3C2)nc1` | -0.1049% | 5.203% |
| `O=C(COc1ccc(-n2cccn2)nn1)N1CCCC1` | 1.34% | 5.765% |
| `COCC(=O)N1CC(c2csc(NC(C)=O)n2)C1` | -6.118% | 1.854% |
| `CCC(=O)N1CCC2(CCN(Cc3cccc(F)c3)CC2)CC1` | -1.394% | 3.548% |
| `CCC(=O)N1CCN(C(=O)Nc2ccccc2-c2cccs2)CC1` | -1.548% | - |
| `Cc1c(CN2CCCC(C(=O)Nc3ccccc3)C2)cc(C#N)n1C` (stereo unspecified) | -1.089% | 3.027% |
| `NC(=O)c1cncc(Oc2cccc(CN3CCCC3)c2Cl)n1` | -6.175% | -1.261% |
| `CN(Cc1cccc(OCCO)c1)Cc1cccc2ncccc12` | 15.19% | 8.148% |
| `Cc1ncsc1CN1C[C@H](OCC(C)C)[C@H]2OCCC[C@H]21` | -4.673% | 0% |
| `CN(C)C(=O)c1ccc(OC2CCOCC2)cc1` | -3.804% | 9.011% |
| `Cc1nc(Nc2ncccn2)cc(C2CCCN2C2CCOCC2)n1` (stereo unspecified) | -1.254% | -10.56% |
| `COCCc1noc(CN2CCCCC2Cn2nc(C)cc2C)n1` (stereo unspecified) | -1.394% | 0.527% |
| `Cc1nc(N(C)CCCc2nccn2C)c2c(C)nn(C)c2n1` | -0.7323% | 3.672% |
| `COc1ccc2c(c1)[nH]c1c(N(C)CC3OCCO3)ncnc12` | -3.317% | -17.45% |
| `CCn1cc(NC(=O)C(C)n2ncc(Cl)c2C)c(C(=O)NC)n1` (stereo unspecified) | -4.402% | -3.505% |
| `CNC(=O)N1CC[C@@H]2CN(Cc3cccnc3)S(=O)(=O)[C@@H]2CC1` | 4.098% | 6.17% |
| `Cc1cc(-c2cnc(N3CCCC(C)C3)nc2C(C)C)on1` (stereo unspecified) | 9.073% | -3.148% |
| `Nc1nc(O)cc(N2CCC(c3cc(Cc4ccccc4)n[nH]3)CC2)n1` | 3.946% | 3.396% |
| `Cn1nnc(NCc2ccccc2OCc2ccc(Cl)cc2)n1` | 9.33% | -5.402% |
| `COC(=O)c1oc(CNC(C)(C)c2ccc3c(c2)OCCO3)cc1C` | -3.187% | -4.214% |
| `COc1ccc(CN2C[C@@H]3OCCN(c4ncccn4)[C@@H]3C2)cc1` | -2.996% | 9.067% |
| `CCn1c(CC2CCN(S(=O)(=O)N3CCCCC3)CC2)nn(C)c1=O` | -0.3221% | 9.74% |
| `Cc1noc(CN(Cc2ccco2)Cc2cccc3c2OCO3)n1` | -3.359% | 8.423% |
| `CN(C)C1CCN(Cc2cnc(S(C)(=O)=O)n2CC2CCCCC2)C1` (stereo unspecified) | 1.57% | -22.29% |
| `CN(C)C(=O)COC1COC2(CCN(c3ncccn3)CC2)C1` (stereo unspecified) | -5.844% | 5.33% |
| `Cn1ccnc1CN1CCN(Cc2ccccc2C#N)CC1` | 3.801% | 6.845% |

Once more, the final 5:

SMILES	MtTrpRS	CoaBC
CCn1c(CC2CCN(S(=O)(=O)N3CCCCC3)CC2)nn(C)c1=O	-0.3221%	9.74%
Cc1noc(CN(Cc2ccco2)Cc2cccc3c2OCO3)n1	-3.359%	8.423%
CN(C)C1CCN(Cc2cnc(S(C)(=O)=O)n2CC2CCCCC2)C1 (stereo unspecified)	1.57%	-22.29%
CN(C)C(=O)COC1COC2(CCN(c3ncccn3)CC2)C1 (stereo unspecified)	-5.844%	5.33%
Cn1ccnc1CN1CCN(Cc2ccccc2C#N)CC1	3.801%	6.845%